These results are taken from paper PMC3418561.

The chains behind the UniProt entries cited, without tags or fusion partners.
UniProt Q62689: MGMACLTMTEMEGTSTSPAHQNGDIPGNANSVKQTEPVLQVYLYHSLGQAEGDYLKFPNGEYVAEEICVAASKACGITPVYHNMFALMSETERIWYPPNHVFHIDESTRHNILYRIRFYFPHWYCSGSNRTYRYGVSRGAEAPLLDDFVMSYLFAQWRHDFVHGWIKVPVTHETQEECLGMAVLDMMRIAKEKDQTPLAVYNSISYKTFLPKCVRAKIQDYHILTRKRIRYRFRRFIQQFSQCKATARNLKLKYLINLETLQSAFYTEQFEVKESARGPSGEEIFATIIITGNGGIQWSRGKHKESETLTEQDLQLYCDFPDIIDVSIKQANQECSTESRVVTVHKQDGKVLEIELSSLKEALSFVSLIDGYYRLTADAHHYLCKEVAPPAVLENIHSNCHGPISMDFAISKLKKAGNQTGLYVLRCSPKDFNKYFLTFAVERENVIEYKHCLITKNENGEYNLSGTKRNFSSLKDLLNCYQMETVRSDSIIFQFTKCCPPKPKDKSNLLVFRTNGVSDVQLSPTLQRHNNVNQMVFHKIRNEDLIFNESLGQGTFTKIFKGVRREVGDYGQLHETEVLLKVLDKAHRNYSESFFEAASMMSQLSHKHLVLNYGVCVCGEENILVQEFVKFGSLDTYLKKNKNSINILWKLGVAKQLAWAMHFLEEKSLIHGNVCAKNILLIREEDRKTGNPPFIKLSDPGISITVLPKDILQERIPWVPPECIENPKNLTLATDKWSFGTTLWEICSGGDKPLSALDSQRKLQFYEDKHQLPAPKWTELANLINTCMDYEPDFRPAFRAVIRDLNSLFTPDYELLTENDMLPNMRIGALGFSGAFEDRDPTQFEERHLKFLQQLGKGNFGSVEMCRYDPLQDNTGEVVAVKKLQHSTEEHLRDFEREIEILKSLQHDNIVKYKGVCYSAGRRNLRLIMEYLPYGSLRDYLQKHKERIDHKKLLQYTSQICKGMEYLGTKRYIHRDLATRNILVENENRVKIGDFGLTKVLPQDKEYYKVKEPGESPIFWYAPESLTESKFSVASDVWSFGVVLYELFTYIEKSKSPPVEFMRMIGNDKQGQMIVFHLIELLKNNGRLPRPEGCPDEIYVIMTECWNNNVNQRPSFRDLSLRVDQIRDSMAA

Results are given in words; binding and its absence hold for the method and conditions named. Binding seen in cells or lysates may run through a third protein. Some results given as binding are weak or reduced against the parent protein; the word gives no strength.

In this test the target is T1, TNFα receptor (TNFR1) (rat (endogenous in primary mixed glia of Wistar rats)) (UniProt P22934).
T1 sequence: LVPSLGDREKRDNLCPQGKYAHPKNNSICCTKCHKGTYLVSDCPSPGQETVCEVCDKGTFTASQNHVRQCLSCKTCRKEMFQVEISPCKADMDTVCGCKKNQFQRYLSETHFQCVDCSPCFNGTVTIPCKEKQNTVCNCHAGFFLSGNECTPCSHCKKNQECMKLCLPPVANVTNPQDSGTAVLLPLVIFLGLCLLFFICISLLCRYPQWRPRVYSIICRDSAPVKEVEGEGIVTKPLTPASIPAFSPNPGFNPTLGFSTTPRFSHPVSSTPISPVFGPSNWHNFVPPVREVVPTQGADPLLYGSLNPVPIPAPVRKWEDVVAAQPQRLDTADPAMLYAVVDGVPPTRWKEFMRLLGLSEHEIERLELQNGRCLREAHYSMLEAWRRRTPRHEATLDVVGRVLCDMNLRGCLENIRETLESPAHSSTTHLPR
Kind of test: co-IP; TNFR1 immunoprecipitated with an anti-TNFR1 antibody from lysates of rat mixed glia treated with TNFα (5 ng/ml) for 0, 5 or 10 minutes; western blot with a phospho-JAK2 specific antibody. Background: A western blot detects proteins with antibodies after separation by electrophoresis.

Regarding “phosphorylated JAK2 (Janus kinase 2) (from UniProt Q62689 1-1132) (enzyme)”, the binding result is given as “binds”.
